Most values lie at the floor of the assay. Slopes are relative: functional sequences can read slightly below zero.
system: Saccharomyces cerevisiae PS128 hsf1 delta, HSF1(1-493) fusion; assay: growth estimate (transactivation domain function in HSF1 fusion, heat-shock survival) (a.u. (slope of normalised read count over time)); higher = stronger growth at 37°C, i.e. more transactivation activity; conditions: library: random library
Procedure: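 Random 60-nt DNA library encoding peptides of up to 20 aa, fused to the C-terminus of yeast HSF1 residues 1-493 (C-terminal TAD deleted) and expressed from the native HSF1 promoter on a CEN plasmid in hsf1-deleted S. cerevisiae PS128. Cells were selected at 37°C on -trp 5-FOA plates for 0, 2, 4, 6 and 8 days and amplicons were sequenced. Growth estimate is the slope of a robust linear fit of total-sum-normalised read counts (normalised to the first time point) over time, using at least 2 replicates. Sequences are classed functional (TAD activity) above a threshold of -0.13, set from stop-codon control sequences.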

Substance	growth estimate
SRS	< -0.25
VKWSGPLP	< -0.25
IGALQHRSG	< -0.25
RNVGGIGKWMCLVTMRWTTA	0.366
FGEQYNN	< -0.25
SVGTRYAGESRTAHHKCSFS	< -0.25
FEFYGEAKWPG	< -0.25
LVCERSIFRIPTVSGQ	< -0.25
TGNFLP	< -0.25
ILGARARDC	< -0.25
DVAAPGRRDLEALSTVTFLG	< -0.25
AFSREDASFDEVKGPG	-0.246
VSRSVTNSVVSSKFTRGSGS	< -0.25
CTLDETIEDSRWESPRHDSN	< -0.25
SFGLHGIRGALKHG	< -0.25
SKSRDGYPMY	< -0.25
CLCLMCACLGGPRIEKKDIM	< -0.25
ILCGCDAALSKTACLSRAWG	< -0.25
PCIPDKFERDVNTSRASE	< -0.25
TLQHDVHQMRPGSSRAATFG	< -0.25
DVTVLYT	< -0.25
KADSDRVRLSSREPSNMCDG	< -0.25
FVGGLPRN	< -0.25
MYR	< -0.25
QWSVLEAG	< -0.25
GLDSDDDNVYRCPSFCM	< -0.25

Seven entries drawn at random from the list so far:
Substance	growth estimate
VSRSVTNSVVSSKFTRGSGS	< -0.25
VKWSGPLP	< -0.25
MYR	< -0.25
FVGGLPRN	< -0.25
SFGLHGIRGALKHG	< -0.25
ILCGCDAALSKTACLSRAWG	< -0.25
SRS	< -0.25

Further results:

Substance	growth estimate
YCQRRVG	< -0.25
GCKGEILPPVTSAYRSSLES	< -0.25
NRCPLINRPLWYKTILATRP	< -0.25
RADFNYCPGYEKIFYRATR	< -0.25
GLRIREHAARQVLTKSFSTL	< -0.25
RAFYQIQSVYELVLSKYHEI	< -0.25
SKRCIPGTMRAGLWDGTSIF	< -0.25
NLLHLRWSS	< -0.25
CHPLR	< -0.25
RCGGDNLDEMDLTDEF	< -0.25
INHF	< -0.25
PGGSYLSQSSWIRKV	< -0.25
LWPYCEAYHISVPSLCHVSP	< -0.25
SNEIRSRGLAYRELRPLCPP	< -0.25
MNMVGHKSPGSGNRMVYLIL	< -0.25
VCLTDQVWRL	< -0.25
GPVLVGPGFSGSVARTQSGR	< -0.25
PPTPIQREPRGVECR	< -0.25
FALL	< -0.25
CTPGVVVRERISAAS	< -0.25
RTTRRRLGRQ	< -0.25
IPTASSQSKVWPEVALLRCA	< -0.25
FLTRAHCIKPVCVPSKHGAN	< -0.25
FTRLPSRQIPCLSVDRSFPG	< -0.25
MGPPVSKCAWFEEAPGGCWA	< -0.25
AAVWGNGTGGTRVWLTPAFR	< -0.25

Substance	growth estimate
RHRPIFPSVVGRTVSPYDRS	< -0.25
ITVQALMCFSQRLAQRFIGH	-0.246
ALLLPRNLAGECGVKTQAAR	< -0.25
TLYGLFRNLLGFDDQKRYDA	< -0.25
SGCMTVAPEESASWYSSKSN	< -0.25
VALVEALAYS	< -0.25
GESQRPLTATSYSMGDARLP	< -0.25
TIQKVGGTSSLGWCRGVVDD	< -0.25
SVERSAHGIGD	< -0.25
WRSSS	< -0.25
VQMLYGRNNYLCRN	< -0.25
RVNLHG	-0.0128
LLPKSPVEEAGSCSG	< -0.25
YRTTRSR	< -0.25
RFEGVRFSG	< -0.25
SISSFALQL	< -0.25
ASGVRGIAGAYLGWVFGWGS	< -0.25
LHGISSCVVTV	< -0.25
EQE	< -0.25
TRDLVTTGKSLFVGGSHARP	< -0.25
SFTREVSYNV	< -0.25
GRVGLENEVPTFRCSGSKS	< -0.25
AEKTGGFRLDPAGSAHIASL	< -0.25
VQNSRGGIAVNHMEFRKKAR	< -0.25
HKIK	< -0.25
VMRGSQGVGMATIWAANYRS	< -0.25

Substance	growth estimate
GRVCKGIRRRQKQVRIGLVR	< -0.25
VTRP	< -0.25
VKLCYRRACESGVTVPNLEG	< -0.25
KSKSSRIRCGLRGS	< -0.25
YRRTGHGLGPCGIGCDRL	< -0.25
QSEVRLS	< -0.25
DLSWDQLAVIEPRFALKGPG	< -0.25
LERWRVTVPTSPS	< -0.25
HQSFDFFPGA	< -0.25
LMLWVGPRASSNFSQPPPPR	< -0.25
SRLAVGAVG	< -0.25
WGGSLGLVTGKLRTITTQRF	< -0.25
RSHLKSTYS	< -0.25
TTR	< -0.25
SKYSRFRMWDRVLSLLTYD	< -0.25
YGRSHQRESCSTWWRWHLPS	< -0.25
SLAELRQIFIVLRTLPWFLP	< -0.25
LTGERLVGRRLAY	< -0.25
GQDAVKTRVVRGWSPRR	< -0.25
ALGRDVRTL	< -0.25
PEQSDAFRWSCIVTQLGIHF	< -0.25
VGHRWIRYTDSGWSRASGNC	< -0.25
QRHPGCHVIQPALVASI	< -0.25
QCSRMRNHLAPRISMGTPAP	< -0.25
SHELAPGENFPWHDPSSHTV	< -0.25
AGDRICVCRIVTQKVHRHCR	< -0.25

Taken from above.
growth estimate with LVCERSIFRIPTVSGQ reads < -0.25
growth estimate with ASGVRGIAGAYLGWVFGWGS reads < -0.25
growth estimate with HQSFDFFPGA reads < -0.25

(listing goes on)

Substance	growth estimate
AVNARTLFCTAIPAGWSR	-0.245
LLRVNFRRCLYGFLYGDSTG	-0.208
LPKVGSEGKRMPQFYKKTGP	< -0.25
VRGYALGLKSIEIVARIVSP	< -0.25
SHIAIGKLLVILRAAPATEG	< -0.25
HCKRRRPQEIVTLL	< -0.25
LSKSR	< -0.253
IVWADVGSVLM	< -0.25
ATVQFSAMNRVHDRV	< -0.25
KLDEVGLGR	< -0.25
ELNRRSGDDSLLAVRYLSAA	< -0.25
GPRPAVRIYLPVSTPRPCRP	< -0.25
VVLRSHDWGGQHFPGSKVNL	-0.25
YVQPLSTVPVMVHNSLRGSA	< -0.25
VRDHWIRSF	< -0.25
FVGPWLVAT	< -0.25
GFRRNSLGSSPRVI	< -0.25
LRRVCSGLKQSVLARRRACG	< -0.25
YFRGNRFALRASYGGSARWP	< -0.25
GVC	< -0.25
IALVTVDFYCHVFITI	< -0.25
QPAQKHNREGATLDGDEQHL	< -0.25
ASVVGLEARVEKLG	< -0.25
RIDVPCRFLTTMDGFNHSW	< -0.25
VEHFH	< -0.25
AGH	< -0.25

Substance	growth estimate
KNVSEWCHGGRRRNYHYLSA	< -0.25
DGIFVGVKDRHYGN	< -0.25
SGYKVRGGSGRKVTLRG	< -0.25
YSGRVGGPRMPRRGRF	< -0.25
REAAFTACAIMSFTFPYVPR	< -0.25
ELGLQRTCRYWLTGKTSARV	< -0.25
YERGRLISGISRGP	< -0.25
KFRVLASCYTS	< -0.25
SNSSEGWERLQECTRHGHEV	< -0.25
LTTS	< -0.25
HRCYSKLSRFAVSNT	< -0.25
TESAGQITGSNVNGGSLH	< -0.25
AFWCL	< -0.25
SDLYEIRRKTVDVVCAGHEA	< -0.25
YWGP	< -0.25
LSGACREAACATKNSGDMTA	< -0.25
SIMQPHESFLAPWSTGD	< -0.25
AVGQFLEMSLDALPKSIQGA	< -0.25
CLPF	< -0.25
DVGLILSELEVTRELSSPKM	< -0.25
WHGLPHRVQAHTDCSNSF	< -0.25

From the supplement of paper PMC5949888
